Results published in publication PMC10426103.
These are yes or no findings as the source states them, for the method shown. Binding seen in cells or lysates may run through a third protein. Some results given as binding are weak or reduced against the parent protein; the word gives no strength.

The chains behind the UniProt entries cited, without tags or fusion partners.
UniProt O95563: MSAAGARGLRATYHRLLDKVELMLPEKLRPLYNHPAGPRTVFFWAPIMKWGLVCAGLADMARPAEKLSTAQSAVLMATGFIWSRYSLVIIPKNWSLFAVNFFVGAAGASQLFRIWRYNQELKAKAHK

What was measured:
[1] = molecular target: mitochondrial pyruvate carrier 2 (MPC2) (human (endogenous in HEK-293T)) (UniProt O95563); test: co-IP; 293T cells harvested with IP lysis buffer; reacted with immobilized antibodies (GCN5L1, MPC2 and IgG) at 4 °C overnight, Pierce Co-IP Kit; eluted with reducing SDS lysis buffer; immunoblot with anti-MPC2 and anti-GCN5L1
Flag-MPC2 = Flag-MPC2 (UniProt O95563); test: co-IP; 293T cells transfected with Flag-GCN5L1 or Flag-MPC2, lysed with IP lysis buffer, incubated at 4 °C overnight with anti-Flag M2 agarose; washed in PBS; eluted with 1x sample buffer; immunoblot with anti-GCN5L1 or anti-MPC2

B1: amino acid synthesis 5-like 1 (GCN5L1) (protein, UniProt P78537 1-153)
chain: MAPGSRGERSSFRSRRGPGVPSPQPDVTMLSRLLKEHQAKQNERKELQEKRRREAITAATCLTEALVDHLNVGVAQAYMNQRKLDHEVKTLQVQAAQFAKQTGQWIGMVENFNQALKEIGDVENWARSIELDMRTIATALEYVYKGQLQSAPS
- binding [1]: binds
- binding (Flag-MPC2): binds
